# In US20220306751A1 (MYTHIC THERAPEUTICS, published 2022):
# Positions count from the first letter of the chain named. Results are given in words; binding and its absence hold for the method and conditions named. Some results given as binding are weak or reduced against the parent protein; the word gives no strength.
# T1: CD123 protein (R&D Systems Catalog No. 301-R3-025/CF) (Homo sapiens (Human)) (UniProt P26951)
# T1 sequence: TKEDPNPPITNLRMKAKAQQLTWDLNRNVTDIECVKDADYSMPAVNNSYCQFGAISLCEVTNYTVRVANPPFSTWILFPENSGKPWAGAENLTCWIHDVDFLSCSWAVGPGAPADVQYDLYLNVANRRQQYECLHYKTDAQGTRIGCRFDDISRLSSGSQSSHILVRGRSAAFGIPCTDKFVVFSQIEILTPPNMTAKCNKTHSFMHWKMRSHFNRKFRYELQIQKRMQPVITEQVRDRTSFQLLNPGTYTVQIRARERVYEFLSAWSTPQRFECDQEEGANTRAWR
# B1: MYT5450 (antibody, V domains shown)
# VH: EVQLLESGGGLVQPGGSLRLSCAVSDYSITSHYYWNWIRQAPGKKLEWMGYISYDGSNNYNPSLKNGRITISRDTSKNTFYLQMNSLRAEDTAVYYCARGEGFYFDSWGQGTLVTVSS
# VL: EIVLTQSPGTLSLSPGERATLSCKSSQSLFFGSTQKNYLAWYQQKPGQAPRLLIYWASTRESGIPDRFSGSGSGTDFTLTISRLEPEDFAVYYCQQYYNYPWTFGQGTKLEIK
# B2: MYT5472 (antibody, V domains shown)
# VH: B1 VH with H32G, A98H
# VL: B1 VL
# B3: MYT5467 (antibody, V domains shown)
# VH: B1 VH with H32G, S63H
# VL: B1 VL
# B4: MYT5465 (antibody, V domains shown)
# VH: B1 VH with H32G, N61H
# VL: B1 VL
# B5: MYT5452 (antibody, V domains shown)
# VH: B1 VH with H32G, Y34H
# VL: B1 VL
# B6: MYT5443 (antibody, V domains shown)
# VH: B1 VH with S25H, H32G
# VL: B1 VL
# B7: MYT5471 (antibody, V domains shown)
# VH: B1 VH with H32G, G67H
# VL: B1 VL
# B8: MYT5473 (antibody, V domains shown)
# VH: B1 VH with H32G, R99H
# VL: B1 VL
# B9: MYT5469 (antibody, V domains shown)
# VH: B1 VH with H32G, K65H
# VL: B1 VL
# B10: MYT5487 (antibody, V domains shown)
# VH: B1 VH with H32G
# VL: B1 VL with G32H
# B11: MYT5466 (antibody, V domains shown)
# VH: B1 VH with H32G, P62H
# VL: B1 VL
# B12: MYT5470 (antibody, V domains shown)
# VH: B1 VH with H32G, N66H
# VL: B1 VL
# B13: MYT5449 (antibody, V domains shown)
# VH: B1 VH with S31H, H32G
# VL: B1 VL
# B14: MYT5451 (antibody, V domains shown)
# VH: B1 VH with H32G, Y33H
# VL: B1 VL
# B15: MYT5484 (antibody, V domains shown)
# VH: B1 VH with H32G
# VL: B1 VL with L29H
# B16: MYT5462 (antibody, V domains shown)
# VH: B1 VH with H32G, N58H
# VL: B1 VL
# B17: MYT5459 (antibody, V domains shown)
# VH: B1 VH with H32G, D55H
# VL: B1 VL
# B18: MYT5463 (antibody, V domains shown)
# VH: B1 VH with H32G, N59H
# VL: B1 VL
# B19: MYT5444 (antibody, V domains shown)
# VH: B1 VH with D26H, H32G
# VL: B1 VL
# B20: MYT5477 (antibody, V domains shown)
# VH: B1 VH with H32G, F103H
# VL: B1 VL
# B21: MYT5455 (antibody, V domains shown)
# VH: B1 VH with H32G, Y51H
# VL: B1 VL
# B22: MYT5461 (antibody, V domains shown)
# VH: B1 VH with H32G, S57H
# VL: B1 VL
# B23: MYT5456 (antibody, V domains shown)
# VH: B1 VH with H32G, I52H
# VL: B1 VL
# B24: MYT5485 (antibody, V domains shown)
# VH: B1 VH with H32G
# VL: B1 VL with F30H
# B25: MYT5479 (antibody, V domains shown)
# VH: B1 VH with H32G, F105H
# VL: B1 VL
# B26: MYT5445 (antibody, V domains shown)
# VH: B1 VH with Y27H, H32G
# VL: B1 VL
# B27: MYT5457 (antibody, V domains shown)
# VH: B1 VH with H32G, S53H
# VL: B1 VL
# B28: MYT5442 (antibody, V domains shown)
# VH: B1 VH with V24H, H32G
# VL: B1 VL
# B29: MYT5481 (antibody, V domains shown)
# VH: B1 VH with H32G, S107H
# VL: B1 VL
# B30: MYT5458 (antibody, V domains shown)
# VH: B1 VH with H32G, Y54H
# VL: B1 VL
# B31: MYT5447 (antibody, V domains shown)
# VH: B1 VH with I29H, H32G
# VL: B1 VL
# B32: MYT5475 (antibody, V domains shown)
# VH: B1 VH with H32G, E101H
# VL: B1 VL
# B33: MYT5478 (antibody, V domains shown)
# VH: B1 VH with H32G, Y104H
# VL: B1 VL
# B34: MYT5468 (antibody, V domains shown)
# VH: B1 VH with H32G, L64H
# VL: B1 VL
# B35: MYT5488 (antibody, V domains shown)
# VH: B1 VH with H32G
# VL: B1 VL with S33H
# B36: MYT5441 (antibody, V domains shown)
# VH: B1 VH with A23H, H32G
# VL: B1 VL
# B37: MYT5486 (antibody, V domains shown)
# VH: B1 VH with H32G
# VL: B1 VL with F31H
# B38: MYT5453 (antibody, V domains shown)
# VH: B1 VH with H32G, W35H
# VL: B1 VL
# B39: MYT5464 (antibody, V domains shown)
# VH: B1 VH with H32G, Y60H
# VL: B1 VL
# B40: MYT5446 (antibody, V domains shown)
# VH: B1 VH with S28H, H32G
# VL: B1 VL
# B41: MYT5448 (antibody, V domains shown)
# VH: B1 VH with T30H, H32G
# VL: B1 VL
# B42: MYT5454 (antibody, V domains shown)
# VH: B1 VH with H32G, N36H
# VL: B1 VL
# B43: MYT5474 (antibody, V domains shown)
# VH: B1 VH with H32G, G100H
# VL: B1 VL
# B44: MYT5480 (antibody, V domains shown)
# VH: B1 VH with H32G, D106H
# VL: B1 VL
# B45: MYT5460 (antibody, V domains shown)
# VH: B1 VH with H32G, G56H
# VL: B1 VL
# Target: T1, CD123 protein (R&D Systems Catalog No. 301-R3-025/CF) (Homo sapiens (Human))
# Assay: BLI, IgG on anti-human Fc sensor, 50 nM CD123, pH 7.4 and pH 5.4
row,binding,Binder
1,binds,B1
2,binds,B2
3,binds,B3
4,binds,B4
5,binds,B5
6,binds,B6
7,binds,B7
8,binds,B8
9,binds,B9
10,binds,B10
11,binds,B11
12,binds,B12
13,binds,B13
14,binds,B14
15,binds,B15
16,binds,B16
17,binds,B17
18,binds,B18
19,binds,B19
20,binds,B20
21,binds,B21
22,binds,B22
23,binds,B23

row,binding,Binder
1,binds,B24
2,binds,B25
3,binds,B26
4,binds,B27
5,binds,B28
6,binds,B29
7,binds,B30
8,binds,B31
9,binds,B32
10,binds,B33
11,binds,B34
12,binds,B35
13,binds,B36
14,binds,B37
15,binds,B38
16,binds,B39
17,binds,B40
18,binds,B41
19,binds,B42
20,binds,B43
21,binds,B44
22,binds,B45
